# Laboratory results published in article PMC7819943, “Rice protein-binding microarrays: a tool to detect cis-acting elements near promoter regions in rice”.
# By UniProt entry, the sequences of proteins in these tests, tags left out.
# UniProt Q0JBA9, entry or part of it: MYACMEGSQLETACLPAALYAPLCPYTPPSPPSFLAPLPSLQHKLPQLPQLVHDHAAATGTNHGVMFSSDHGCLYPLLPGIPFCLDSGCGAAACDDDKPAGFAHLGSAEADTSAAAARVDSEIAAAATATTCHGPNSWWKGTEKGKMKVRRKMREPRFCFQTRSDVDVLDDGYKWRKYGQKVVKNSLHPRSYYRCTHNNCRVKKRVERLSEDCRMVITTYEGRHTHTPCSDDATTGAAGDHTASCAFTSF
# The other results are listed elsewhere or left out.
# Target: OsWRKY34 (Oryza sativa, UniProt Q0JBA9 1-250)
# Assay: protein-binding microarray (RPBM); PBS, 2% BSA, 51.3 ng/ul salmon testes DNA, 50 uM zinc acetate, 200 nM TF, 25 C, 1 h; high values mean tight binding
# Details: protein: recombinant; tags: N-terminal polyhistidine and DsRed monomer fusion (pET32a); label: CyDye5-dUTP incorporated in the synthesized complementary strand; 3' TTTTT single-stranded linker to array surface; dsDNA, one strand shown
# Summary of the method: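 A custom Agilent array was converted to double-stranded form by primer extension with Cy5-dUTP and blocked with 2% BSA. Protein at 200 nM in PBS with 2% BSA, salmon testes DNA and 50 µM zinc acetate was applied for 1 h at 25 °C, followed by washing. The proteins were polyhistidine–DsRed N-terminal fusions of transcription factors, expressed in E. coli BL21-CodonPlus and Ni–NTA-purified. The binding signal is per-feature fluorescence intensity (arbitrary units) from an Axon 4000B scanner.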
row,Sequence,binding signal
1,CTCCTCACCTCTTCTTGTTCTTCTTCTCTCTCTCTTGTCACGGAGTCACCTAGTGCAG,10400 fluorescence intensity (a.u.)
2,AAATCGGCTCCACCTTCCCTGTCACCATGCTAATCTTTCCCGGAGTCACCTAGTGCAG,8360 fluorescence intensity (a.u.)
3,GGCCTGTATGTAGTTATATATTTTTTCATCAATTTATGCTCGGAGTCACCTAGTGCAG,8250 fluorescence intensity (a.u.)
4,ATATCACTTCACAAACATGCAAGTTCAAATTTGACTTCTACGGAGTCACCTAGTGCAG,8400 fluorescence intensity (a.u.)
5,AGGTAGCCATGCTACGGCGTCTCGCTTTTCTCTTTTTTGACGGAGTCACCTAGTGCAG,9110 fluorescence intensity (a.u.)
6,AGACCCATTTACATTTCGCAGCAAAGCCATCGTGTATTCACGGAGTCACCTAGTGCAG,8320 fluorescence intensity (a.u.)
7,TTTCCACCTATACTTTGATGATCAGCGCTTCCTATTCCACCGGAGTCACCTAGTGCAG,8670 fluorescence intensity (a.u.)
8,CCTCTTTCCTTCAACGAAGCTTCAACGACGCGCGCGTTCTCGGAGTCACCTAGTGCAG,8090 fluorescence intensity (a.u.)
9,ATCACGCAAACAAGATGTGGCCCGTATCGGAGATTCCCTCCGGAGTCACCTAGTGCAG,8760 fluorescence intensity (a.u.)
10,CCGCCGCGGCCGCGCGTTTCTCCTGCACGCCACGACCCTTCGGAGTCACCTAGTGCAG,8120 fluorescence intensity (a.u.)
11,ATGATGCAATTGTGGGTCTAGAATTTAGGGGTTGTTTGGTCGGAGTCACCTAGTGCAG,9790 fluorescence intensity (a.u.)
12,CCCACATTTTTTTGTCACTTACATGTGGGCCCCACATATTCGGAGTCACCTAGTGCAG,8070 fluorescence intensity (a.u.)
13,AATCTCACTTTTCTTCACTCTCTTCTCTTACCTTTTTCACCGGAGTCACCTAGTGCAG,12000 fluorescence intensity (a.u.)
14,CTATCCCAATTCCTCTTGCCACACACCACTTATCCGCTGCCGGAGTCACCTAGTGCAG,8650 fluorescence intensity (a.u.)
15,TGCATTCAGTTTGATTGGTTGCTTTGTTCAGAGCTGTTTCCGGAGTCACCTAGTGCAG,8070 fluorescence intensity (a.u.)
16,TTAATGTATGTTATAACATCTTGGCATCACATGTACTATCCGGAGTCACCTAGTGCAG,9810 fluorescence intensity (a.u.)
17,AGGGGATGGGGATGGGGATGGAGACGGGGACTTGGAACGACGGAGTCACCTAGTGCAG,11600 fluorescence intensity (a.u.)
18,GATTTTTCTTGCCATGTGGTTGATGTCTTTTAACATAGTACGGAGTCACCTAGTGCAG,10300 fluorescence intensity (a.u.)
19,GCTATGTTAGTTATGAACTACTTGTGGTGTTGTTTTTAGTCGGAGTCACCTAGTGCAG,11200 fluorescence intensity (a.u.)
20,AATCACGCGCTAATGGATCGTTCCTTTTTCTATGCAGACACGGAGTCACCTAGTGCAG,10200 fluorescence intensity (a.u.)
21,GATGTACTGAACTGTTTTTTTTTTCGTTTTTAATTTCTAGCGGAGTCACCTAGTGCAG,8550 fluorescence intensity (a.u.)

# Two records picked at random from those above, as already listed:
row,Sequence,binding signal
17,AGGGGATGGGGATGGGGATGGAGACGGGGACTTGGAACGACGGAGTCACCTAGTGCAG,11600 fluorescence intensity (a.u.)
21,GATGTACTGAACTGTTTTTTTTTTCGTTTTTAATTTCTAGCGGAGTCACCTAGTGCAG,8550 fluorescence intensity (a.u.)

# Next entries follow.

row,Sequence,binding signal
1,GCTAGCGCTGCCGCCCTACTCTTGATCCTAAATATTCATTCGGAGTCACCTAGTGCAG,8210 fluorescence intensity (a.u.)
2,AGTATATAGTTGTGTTTAACCCATTCAATGAATTATTAGTCGGAGTCACCTAGTGCAG,8180 fluorescence intensity (a.u.)
3,TGATGCTAACCCATTTGTCACTGTATGTCTTGCATTGTGTCGGAGTCACCTAGTGCAG,9570 fluorescence intensity (a.u.)
4,GCTCCGCTGCTCTTGTGCTTCGCGCCTCGCCTGACCTCGCCGGAGTCACCTAGTGCAG,11300 fluorescence intensity (a.u.)
5,AATCCCTGTCTAAACTATTTTTTGCAACTTGCGCCTTGAACGGAGTCACCTAGTGCAG,8950 fluorescence intensity (a.u.)
6,CTCTGCCTCGCCTAATCCAGCGCAACACCACGCCGTCCACCGGAGTCACCTAGTGCAG,8790 fluorescence intensity (a.u.)
7,TGGTGGTTTTCGTCGTCGTCGTCGTCGTCGGCTTCATATACGGAGTCACCTAGTGCAG,10100 fluorescence intensity (a.u.)
8,GGGGTAAGGCAGTGTTTGCGGTGTTTGATCGGAACCTGTTCGGAGTCACCTAGTGCAG,10100 fluorescence intensity (a.u.)
9,ACTGCCTTTGTTTCTTGTGTAGCACAGGGATGCAAACGTACGGAGTCACCTAGTGCAG,10000 fluorescence intensity (a.u.)
10,AAGTGTGAATTTTCCTTTTCTTTTAGAGTTACCCTGGTCTCGGAGTCACCTAGTGCAG,8160 fluorescence intensity (a.u.)
11,GCCGCCGCCTCCGCCGCCGCCGATCCCCATCCATCCCGCGCGGAGTCACCTAGTGCAG,10500 fluorescence intensity (a.u.)
12,TTTACGCTTCCCCGTCTCCGCCTCCACCTCGAATCCTTCTCGGAGTCACCTAGTGCAG,9180 fluorescence intensity (a.u.)
13,TCATAATGGTCACACGATGGCTATATTTCGTCGGCTTATTCGGAGTCACCTAGTGCAG,8750 fluorescence intensity (a.u.)
14,GCGTTTCGCCGGAGCTCTCCTCGCATCTCACTGCCGCTCCCGGAGTCACCTAGTGCAG,9270 fluorescence intensity (a.u.)
15,GGTCAAATTTCTTCGGCGATAAGCTACGTGCCTATATATACGGAGTCACCTAGTGCAG,8280 fluorescence intensity (a.u.)
16,AACGTTTATCCGCTCATACATAGATGTTGGCGTGTTTTTGCGGAGTCACCTAGTGCAG,8930 fluorescence intensity (a.u.)
17,CATATAGTAGCGGTGGTGTGGAGAGTGTTTGTATTTCTGTCGGAGTCACCTAGTGCAG,8210 fluorescence intensity (a.u.)
18,CTCCCAACGGTTATTTTCAAATTTGAACGGTCAAATAGCCCGGAGTCACCTAGTGCAG,9460 fluorescence intensity (a.u.)
19,GGAGCACTTTTATCCCTTATTGGGGTTGGTATTCTGGAGTCGGAGTCACCTAGTGCAG,10400 fluorescence intensity (a.u.)
20,ACATATTTCTTGTTGTTTGTGCGCTGATGTACATCACTTCCGGAGTCACCTAGTGCAG,14600 fluorescence intensity (a.u.)
21,GTCAACTAATAATAAACTGACGGGAGGGGCATGGAATAAACGGAGTCACCTAGTGCAG,8640 fluorescence intensity (a.u.)
